# This is one part of the list. Repeats are few or missing, and single values can be far off.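 Imaging used 1,536-well plates; nuclei positive for cleaved PARP by antibody were divided by total DNA-stained nuclei to yield the apoptosis fraction. Doses for screening kept most cells viable, and cell lines differ markedly in resting and induced cleaved-PARP levels.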
# How the values were obtained:
# Experiment in all cases: cleaved PARP positive nuclei fraction relative to DMSO control; melanoma cells; higher = more apoptosis
# Settings in all cases: library dose: low library concentration; 72 h
# [1] = tested on: MZ2-MEL
# [2] = tested on: MeWo
# [3] = tested on: RPMI7951
# [4] = tested on: RVH-421
# [5] = tested on: SkMel28
# [6] = tested on: SkMel2
# [7] = tested on: SkMel30
# [8] = tested on: UACC62
# [9] = tested on: WM115
# [10] = tested on: WM1716
# [11] = tested on: WM1745
# [12] = tested on: WM3526
# [13] = tested on: WM3619
# [14] = tested on: WM451Lu
SMILES,cleaved PARP positive nuclei fraction [1] [%],cleaved PARP positive nuclei fraction [2] [%],cleaved PARP positive nuclei fraction [3] [%],cleaved PARP positive nuclei fraction [4] [%],cleaved PARP positive nuclei fraction [5] [%],cleaved PARP positive nuclei fraction [6] [%],cleaved PARP positive nuclei fraction [7] [%],cleaved PARP positive nuclei fraction [8] [%],cleaved PARP positive nuclei fraction [9] [%],cleaved PARP positive nuclei fraction [10] [%],cleaved PARP positive nuclei fraction [11] [%],cleaved PARP positive nuclei fraction [12] [%],cleaved PARP positive nuclei fraction [13] [%],cleaved PARP positive nuclei fraction [14] [%]
"CC(C)C[C@H](NC(=O)[C@H](Cc1ccccc1)NC(=O)c1cnccn1)B(O)O [Bortezomib] + CN1CCN(c2ccc3nc(-c4c(N)c5c(F)cccc5[nH]c4=O)[nH]c3c2)CC1 [Dovitinib] (first compound 0.001 µM, partner dose 0.1 µM)",692,113,127,199,170,79.2,145,231,144,946,156,83.5,874,156
"CN1CCN(c2ccc3nc(-c4c(N)c5c(F)cccc5[nH]c4=O)[nH]c3c2)CC1 [Dovitinib] + CNC(=O)c1cc(Oc2ccc(NC(=O)Nc3ccc(Cl)c(C(F)(F)F)c3)cc2)ccn1 [sorafenib] (first compound 0.1 µM, partner dose 0.4 µM)",62.4,134,33.1,94.8,93.9,56.8,305,143,70.8,74.8,125,93.7,88.4,179
"Nc1ncn([C@H]2C[C@H](O)[C@@H](CO)O2)c(=O)n1 [decitabine] + C[C@]1(c2nc3c(C(N)=O)cccc3[nH]2)CCCN1 [Veliparib] (first compound 0.1 µM, partner dose 1.4 µM)",28.4,79.4,55.4,151,62.8,128,132,144,114,88,80.1,41.7,107,88.1
"Cn1c(=O)n(-c2ccc(C(C)(C)C#N)cc2)c2c3cc(-c4cnc5ccccc5c4)ccc3ncc21 + Nc1nc(F)nc2c1ncn2[C@@H]1O[C@H](CO)[C@@H](O)[C@@H]1O [fludarabine] (first compound 0.004 µM, partner dose 0.2 µM)",96.7,579,95.9,52.6,95.4,802,1590,160,155,82.3,96.8,226,110,68.1
"O=C(O)[C@@H]1[O][Sb](=[O])([O][Sb]2(=[O])[O][C@H]([C@H](O)CO)[C@H](O)[C@H](C(=O)O)[O]2)[O][C@H]([C@H](O)CO)[C@@H]1O (stereo partly specified) [stibogluconate] + CC(=O)c1c(C)c2cnc(Nc3ccc(N4CCNCC4)cn3)nc2n(C2CCCC2)c1=O [palbociclib] (first compound 2 µM, partner dose 0.04 µM)",56.5,27.3,92.5,115,165,119,87,214,103,99.3,155,408,123,112
"Cn1c(=O)n(-c2ccc(C(C)(C)C#N)cc2)c2c3cc(-c4cnc5ccccc5c4)ccc3ncc21 + C=C(c1ccc(C(=O)O)cc1)c1cc2c(cc1C)C(C)(C)CCC2(C)C [Bexarotene] (first compound 0.004 µM, partner dose 2 µM)",94.1,71,95.2,229,50.3,86.7,59.2,260,121,81.1,102,55.2,86.6,104
"Cc1cc(Nc2cc(N3CCN(C)CC3)nc(/C=C/c3ccccc3)n2)n[nH]1 + CC(=O)c1c(C)c2cnc(Nc3ccc(N4CCNCC4)cn3)nc2n(C2CCCC2)c1=O [palbociclib] (first compound 0.04 µM, partner dose 0.04 µM)",55.1,72.7,242,277,88.3,57.5,101,185,81.3,91.3,141,129,117,64.6
"O=C(O)[C@@H]1[O][Sb](=[O])([O][Sb]2(=[O])[O][C@H]([C@H](O)CO)[C@H](O)[C@H](C(=O)O)[O]2)[O][C@H]([C@H](O)CO)[C@@H]1O (stereo partly specified) [stibogluconate] + Nc1cccc2c1CN(C1CCC(=O)NC1=O)C2=O [lenalidomide] (first compound 2 µM, partner dose 1 µM)",197,81.3,106,31,49.1,109,59.5,66.7,119,65,203,64,95.8,17.5
"O=C(O)c1ccc2c(c1)nc(Nc1cccc(Cl)c1)c1ccncc12 + CCCS(=O)(=O)Nc1ccc(F)c(C(=O)c2c[nH]c3ncc(Cl)cc23)c1F [PLX4720] (first compound 0.4 µM, partner dose 0.08 µM)",106,188,36.7,65,74.8,101,49.1,178,270,353,103,51.7,103,72.9
"O=C(O)[C@@H]1[O][Sb](=[O])([O][Sb]2(=[O])[O][C@H]([C@H](O)CO)[C@H](O)[C@H](C(=O)O)[O]2)[O][C@H]([C@H](O)CO)[C@@H]1O (stereo partly specified) [stibogluconate] + CCCS(=O)(=O)Nc1ccc(F)c(C(=O)c2c[nH]c3ncc(Cl)cc23)c1F [PLX4720] (first compound 2 µM, partner dose 0.08 µM)",30.1,72.3,146,90.3,76.4,175,92.9,79.3,104,115,95.2,165,97.5,174
"O=C(O)c1ccc2c(c1)nc(Nc1cccc(Cl)c1)c1ccncc12 + COc1ccc(Cl)c(Nc2nc3ccccc3nc2NS(=O)(=O)c2cccc(NC(=O)C(C)(C)N)c2)c1 [XL147] (first compound 0.4 µM, partner dose 0.8 µM)",78.3,138,58.1,74.8,69.8,101,34.3,165,153,155,123,96.7,94.3,95.9
"Cc1cc(Nc2cc(N3CCN(C)CC3)nc(/C=C/c3ccccc3)n2)n[nH]1 + CN1CCN(c2ccc3nc(-c4c(N)c5c(F)cccc5[nH]c4=O)[nH]c3c2)CC1 [Dovitinib] (first compound 0.04 µM, partner dose 0.1 µM)",47.6,109,101,232,81.6,49.5,150,79.6,99.1,93.5,104,53.1,85.1,148
"Nc1nc(F)nc2c1ncn2[C@@H]1O[C@H](CO)[C@@H](O)[C@@H]1O [fludarabine] + C[C@]1(c2nc3c(C(N)=O)cccc3[nH]2)CCCN1 [Veliparib] (first compound 0.2 µM, partner dose 1.4 µM)",147,611,64,11.7,45.9,670,2810,137,74.4,153,101,561,97.9,67.8
"Cc1cc(Nc2cc(N3CCN(C)CC3)nc(/C=C/c3ccccc3)n2)n[nH]1 + O=C(O)[C@@H]1[O][Sb](=[O])([O][Sb]2(=[O])[O][C@H]([C@H](O)CO)[C@H](O)[C@H](C(=O)O)[O]2)[O][C@H]([C@H](O)CO)[C@@H]1O [stibogluconate] (first compound 0.04 µM, partner dose 2 µM)",69.2,88.2,24.6,165,65.1,117,73.9,191,114,33.4,110,161,84.7,23.5
"CCCS(=O)(=O)Nc1ccc(F)c(C(=O)c2c[nH]c3ncc(Cl)cc23)c1F + Clc1ccc(Nc2nnc(Cc3ccncc3)c3ccccc23)cc1 [vatalanib] (first compound 0.08 µM, partner dose 2 µM)",79.7,34.6,311,187,77.2,67.1,57.6,371,34.9,29.1,122,49.8,120,169
"O=C(O)[C@@H]1[O][Sb](=[O])([O][Sb]2(=[O])[O][C@H]([C@H](O)CO)[C@H](O)[C@H](C(=O)O)[O]2)[O][C@H]([C@H](O)CO)[C@@H]1O (stereo partly specified) [stibogluconate] + Cc1nc(Nc2ncc(C(=O)Nc3c(C)cccc3Cl)s2)cc(N2CCN(CCO)CC2)n1 [dasatanib] (first compound 2 µM, partner dose 0.004 µM)",80.5,84.3,239,102,57.6,152,54.6,98.2,138,122,149,113,101,94.3
"O=C(O)c1ccc2c(c1)nc(Nc1cccc(Cl)c1)c1ccncc12 + Clc1ccc(Nc2nnc(Cc3ccncc3)c3ccccc23)cc1 [vatalanib] (first compound 0.4 µM, partner dose 2 µM)",219,191,511,49.1,36.3,146,161,41.3,113,128,100,199,111,144
"O=C(O)c1ccc2c(c1)nc(Nc1cccc(Cl)c1)c1ccncc12 + C=C(c1ccc(C(=O)O)cc1)c1cc2c(cc1C)C(C)(C)CCC2(C)C [Bexarotene] (first compound 0.4 µM, partner dose 2 µM)",130,39.5,77,72.3,76.7,127,84.4,71.4,79.5,104,99.8,54.2,96.4,62.9
"CC(C)C[C@H](NC(=O)[C@H](Cc1ccccc1)NC(=O)c1cnccn1)B(O)O [Bortezomib] + C=CCNC1=C2C[C@@H](C)C[C@H](OC)[C@H](O)[C@@H](C)/C=C(\C)[C@H](OC(N)=O)[C@@H](OC)/C=C\C=C(/C)C(=O)NC(=CC1=O)C2=O [Tanespimycin] (first compound 0.001 µM, partner dose 0.002 µM)",142,61.9,116,153,76.5,72.6,157,42.4,70.8,125,169,55.8,476,80.8

# A portion from the list above, for reference:
SMILES,cleaved PARP positive nuclei fraction [1] [%],cleaved PARP positive nuclei fraction [2] [%],cleaved PARP positive nuclei fraction [3] [%],cleaved PARP positive nuclei fraction [4] [%],cleaved PARP positive nuclei fraction [5] [%],cleaved PARP positive nuclei fraction [6] [%],cleaved PARP positive nuclei fraction [7] [%],cleaved PARP positive nuclei fraction [8] [%],cleaved PARP positive nuclei fraction [9] [%],cleaved PARP positive nuclei fraction [10] [%],cleaved PARP positive nuclei fraction [11] [%],cleaved PARP positive nuclei fraction [12] [%],cleaved PARP positive nuclei fraction [13] [%],cleaved PARP positive nuclei fraction [14] [%]
"O=C(O)c1ccc2c(c1)nc(Nc1cccc(Cl)c1)c1ccncc12 + COc1ccc(Cl)c(Nc2nc3ccccc3nc2NS(=O)(=O)c2cccc(NC(=O)C(C)(C)N)c2)c1 [XL147] (first compound 0.4 µM, partner dose 0.8 µM)",78.3,138,58.1,74.8,69.8,101,34.3,165,153,155,123,96.7,94.3,95.9
"Cc1cc(Nc2cc(N3CCN(C)CC3)nc(/C=C/c3ccccc3)n2)n[nH]1 + CN1CCN(c2ccc3nc(-c4c(N)c5c(F)cccc5[nH]c4=O)[nH]c3c2)CC1 [Dovitinib] (first compound 0.04 µM, partner dose 0.1 µM)",47.6,109,101,232,81.6,49.5,150,79.6,99.1,93.5,104,53.1,85.1,148

# From the supplement of paper PMC4604168 (melanoma cell lines)
